Results from US9523671B2, “Indoxyl sulfate as a biomarker of prebiotic efficacy for weight gain prevention” (Nestec S.A., priority 2013, dated 2016).

System: weight gain in high fat fed animals
Experiment: Correlation of urinary metabolites with weight gain in high fat fed animals
Format: in vivo, C57BL/6 mice

Which “Correlation Coefficient with Weight Gain (r value), Ratio metabolite/creatinine T7” value does the source give for acylcarnitine [Acyl.carnitine] here?
Its value is −0.1396.
